Measured values reported in US20120083522A1, “MODULATION OF INFLAMMATORY RESPONSES BY FACTOR XI” (Isis Pharmaceuitcals, inc., priority 2009, published 2012).
Some entries share one result that the patent states for a list of compounds. In the oligonucleotide strings, read from the 5' end, every base follows the letter of its sugar. An asterisk marks phosphorothioate; unmarked linkages are phosphodiester. Other units and linkages are bracketed, terminal groups are in braces. A string of capitals states the bases alone. e = 2'-O-(2-methoxyethyl) (MOE); [5mC] = 5-methylcytosine; d = 2'-deoxy (DNA)

System: human Factor XI mRNA
Assay: Antisense inhibition in HepG2 cells by microwalk gapmers, 75 nM, lipofectin (Example 3)
Type: cell-based
Details: HepG2, 75 nM, approximately 24 hours
Protocol: These gapmers were designed by creating gapmers shifted slightly upstream and downstream (i.e. “microwalk”) of the original gapmers from Table 3. Gapmers were also created with various motifs, e.g. 5-10-5 MOE, 3-14-3 MOE, and 2-13-5 MOE. These gapmers were tested in vitro. Cultured HepG2 cells at a density of 10,000 cells per well were transfected using lipofectin reagent with 75 nM antisense oligonucleotide. After a treatment period of approximately 24 hours, RNA was isolated from the cells and Factor XI mRNA levels were measured by quantitative real-time PCR. Factor XI mRNA levels were adjusted according to total RNA content, as measured by RIBOGREEN®. Results are presented as percent inhibition of Factor XI, relative to untreated control cells.
The chimeric antisense oligonucleotides in Table 4 were designed as 5-10-5 MOE, 3-14-3 MOE, and 2-13-5 MOE gapmers. The first listed gapmers in Table 4 are the original gapmers (see Table 3) from which the remaining gapmers were designed via microwalk and are designated by an asterisk. The 5-10-5 gapmers are 20 nucleotides in length, wherein the central gap segment is comprised of 10 2′-deoxynucleotides and is flanked on both sides (in the 5′ and 3′ directions) by wings comprising 5 nucleotides each. The 3-14-3 gapmers are 20 nucleotides in length, wherein the central gap segment is comprised of 14 2′-deoxynucleotides and is flanked on both sides (in the 5′ and 3′ directions) by wings comprising 3 nucleotides each. The 2-13-5 gapmers are 20 nucleotides in length, wherein the central gap segment is comprised of 13 2′-deoxynucleotides. The central gap is flanked on the 5′ end with a wing comprising 2 nucleotides and on the 3′ end with a wing comprising 5 nucleotides. For each of the motifs (5-10-5, 3-14-3, and 2-13-5), each nucleotide in the 5′ wing segment and each nucleotide in the 3′ wing segment has a 2′-MOE modification. The internucleoside linkages throughout each gapmer are phosphorothioate (P═S) linkages. All cytidine residues throughout each gapmer are 5-methylcytidines. “Target start site” indicates the 5′-most nucleotide to which the gapmer is targeted. “Target stop site” indicates the 3′-most nucleotide to which the gapmer is targeted. Each gapmer listed in Table 4 is targeted to SEQ ID NO: 1 (GENBANK Accession No. NM_000128.3).

Row | Substance | inhibition of Factor XI mRNA (thresholds stated in text, Tables 4-8)
1 | 416904 (antisense e[5mC]*e[5mC]*eG*dG*dG*dA*dT*dG*dA*dT*dG*dA*dG*dT*dG*d[5mC]*dA*eG*eA*eT) [compound 416904] | at least 90%
2 | 413474 (antisense eA*eG*e[5mC]*eA*eA*d[5mC]*d[5mC]*dG*dG*dG*dA*dT*dG*dA*dT*eG*eA*eG*eT*eG) [compound 413474] | at least 90%
3 | 416859 (antisense GACGGCATTGGTGCACAGTT; 5-10-5 gapmer, wing sugar chemistry not given here, further chemistry not given here) [compound 416859] | at least 80%
4 | 416851 (antisense GTGCACAGTTTCTGGCAGGC; 5-10-5 gapmer, wing sugar chemistry not given here, further chemistry not given here) [compound 416851] | at least 80%
5 | 416849 (antisense eG*e[5mC]*eA*e[5mC]*eA*dG*dT*dT*dT*d[5mC]*dT*dG*dG*d[5mC]*dA*eG*eG*e[5mC]*e[5mC]*eT) [compound 416849] | at least 80%
6 | 416988 (antisense eA*eG*dA*dT*dT*d[5mC]*dT*dT*dT*dG*dG*dG*d[5mC]*d[5mC]*dA*eT*eT*e[5mC]*e[5mC]*eT) [compound 416988] | at least 50%
7 | 416920 (antisense eA*e[5mC]*eA*dG*dT*dT*dT*d[5mC]*dT*dG*dG*d[5mC]*dA*dG*dG*d[5mC]*d[5mC]*eT*e[5mC]*eG) [compound 416920] | at least 80%
8 | 416814 (antisense eA*eG*eG*eT*e[5mC]*d[5mC]*dA*d[5mC]*dA*dT*dA*dA*dA*dT*dG*eT*e[5mC]*eT*eT*eT) [compound 416814] | at least 80%
9 | 416969 (antisense eG*e[5mC]*d[5mC]*d[5mC]*dT*dT*d[5mC]*dA*dT*dG*dT*d[5mC]*dT*dA*dG*eG*eT*e[5mC]*e[5mC]*eA) [compound 416969] | at least 80%
10 | 416860 (antisense CGGACGGCATTGGTGCACAG; 5-10-5 gapmer, wing sugar chemistry not given here, further chemistry not given here) [compound 416860] | at least 80%
11 | 417004 (antisense eT*eT*dG*dG*dT*dG*d[5mC]*dA*d[5mC]*dA*dG*dT*dT*dT*d[5mC]*eT*eG*eG*e[5mC]*eA) [compound 417004] | at least 80%
12 | 416998 (antisense e[5mC]*eA*d[5mC]*dA*dG*dT*dT*dT*d[5mC]*dT*dG*dG*d[5mC]*dA*dG*eG*e[5mC]*e[5mC]*eT*e[5mC]) [compound 416998] | at least 80%
13 | 416898 (antisense e[5mC]*e[5mC]*eG*dT*dG*d[5mC]*dA*dT*d[5mC]*dT*dT*dT*d[5mC]*dT*dT*dG*dG*e[5mC]*eA*eT) [compound 416898] | at least 80%
14 | 416976 (antisense eT*e[5mC]*d[5mC]*dG*dT*dG*d[5mC]*dA*dT*d[5mC]*dT*dT*dT*d[5mC]*dT*eT*eG*eG*e[5mC]*eA) [compound 416976] | at least 80%
15 | 416846 (antisense eT*eT*e[5mC]*eT*eT*dT*dG*dA*dG*dA*dT*dT*d[5mC]*dT*dT*eT*eG*eG*eG*e[5mC]) [compound 416846] | at least 50%
16 | 416883 (antisense eG*eT*e[5mC]*dT*dA*dG*dG*dT*d[5mC]*d[5mC]*dA*d[5mC]*dA*dT*dA*dA*dA*eT*eG*eT) [compound 416883] | at least 80%
17 | 416997 (antisense eA*e[5mC]*dA*dG*dT*dT*dT*d[5mC]*dT*dG*dG*d[5mC]*dA*dG*dG*e[5mC]*e[5mC]*eT*e[5mC]*eG) [compound 416997] | at least 80%
18 | 416921 (antisense e[5mC]*eA*e[5mC]*dA*dG*dT*dT*dT*d[5mC]*dT*dG*dG*d[5mC]*dA*dG*dG*d[5mC]*e[5mC]*eT*e[5mC]) [compound 416921] | at least 80%

Row | Substance | inhibition of Factor XI mRNA (thresholds stated in text, Tables 4-8)
19 | 417006 (antisense e[5mC]*eA*dT*dT*dG*dG*dT*dG*d[5mC]*dA*d[5mC]*dA*dG*dT*dT*eT*e[5mC]*eT*eG*eG) [compound 417006] | at least 80%
20 | 416970 (antisense eT*eG*d[5mC]*d[5mC]*d[5mC]*dT*dT*d[5mC]*dA*dT*dG*dT*d[5mC]*dT*dA*eG*eG*eT*e[5mC]*e[5mC]) [compound 416970] | at least 80%
21 | 416848 (antisense CACAGTTTCTGGCAGGCCTC; 5-10-5 gapmer, wing sugar chemistry not given here, further chemistry not given here) [compound 416848] | at least 80%
22 | 416946 (antisense eA*eA*dA*dT*dG*dT*d[5mC]*dT*dT*dT*dG*dT*dT*dG*d[5mC]*eA*eA*eG*e[5mC]*eG) [compound 416946] | at least 80%
23 | 417020 (antisense e[5mC]*eT*dG*dG*d[5mC]*dA*dG*d[5mC]*dG*dG*dA*d[5mC]*dG*dG*d[5mC]*eA*eT*eT*eG*eG) [compound 417020] | at least 80%
24 | 417011 (antisense eG*eA*d[5mC]*dG*dG*d[5mC]*dA*dT*dT*dG*dG*dT*dG*d[5mC]*dA*e[5mC]*eA*eG*eT*eT) [compound 417011] | at least 80%
25 | 416975 (antisense e[5mC]*e[5mC]*dG*dT*dG*d[5mC]*dA*dT*d[5mC]*dT*dT*dT*d[5mC]*dT*dT*eG*eG*e[5mC]*eA*eT) [compound 416975] | at least 80%
26 | 416866 (antisense CTGGCAGCGGACGGCATTGG; 5-10-5 gapmer, wing sugar chemistry not given here, further chemistry not given here) [compound 416866] | at least 80%
27 | 416869 (antisense eA*eA*eA*dT*dG*dT*d[5mC]*dT*dT*dT*dG*dT*dT*dG*d[5mC]*dA*dA*eG*e[5mC]*eG) [compound 416869] | at least 80%
28 | 413482 (antisense GGACGGCATTGGTGCACAGT; sugars from the 5' end e5 d10 e5, backbone and methylation of C not given here) [compound 413482] | at least 80%
29 | 416909 (antisense eA*eT*eT*d[5mC]*dT*dT*dT*dG*dG*dG*d[5mC]*d[5mC]*dA*dT*dT*d[5mC]*d[5mC]*eT*eG*eG) [compound 416909] | at least 50%
30 | 417014 (antisense eG*e[5mC]*dG*dG*dA*d[5mC]*dG*dG*d[5mC]*dA*dT*dT*dG*dG*dT*eG*e[5mC]*eA*e[5mC]*eA) [compound 417014] | at least 80%
31 | 417018 (antisense eG*eG*d[5mC]*dA*dG*d[5mC]*dG*dG*dA*d[5mC]*dG*dG*d[5mC]*dA*dT*eT*eG*eG*eT*eG) [compound 417018] | at least 80%
32 | 416838 (antisense GCAACCGGGATGATGAGTGC; 5-10-5 gapmer, wing sugar chemistry not given here, further chemistry not given here) [compound 416838] | at least 90%
33 | 417015 (antisense eA*eG*d[5mC]*dG*dG*dA*d[5mC]*dG*dG*d[5mC]*dA*dT*dT*dG*dG*eT*eG*e[5mC]*eA*e[5mC]) [compound 417015] | at least 80%
34 | 417010 (antisense eA*e[5mC]*dG*dG*d[5mC]*dA*dT*dT*dG*dG*dT*dG*d[5mC]*dA*d[5mC]*eA*eG*eT*eT*eT) [compound 417010] | at least 80%
35 | 416890 (antisense e[5mC]*e[5mC]*eT*dT*d[5mC]*dA*dT*dG*dT*d[5mC]*dT*dA*dG*dG*dT*d[5mC]*d[5mC]*eA*e[5mC]*eA) [compound 416890] | at least 80%
36 | 417000 (antisense eT*eG*d[5mC]*dA*d[5mC]*dA*dG*dT*dT*dT*d[5mC]*dT*dG*dG*d[5mC]*eA*eG*eG*e[5mC]*e[5mC]) [compound 417000] | at least 80%
